From patent WO2008044032A2 (dated 2008)
Results are given in words; binding and its absence hold for the method and conditions named. Some binding calls cover weakened binding; strength is not graded here.

Biological target: T1, CD20 on the CD20+ human Daudi Burkitt lymphoma cell line (human) (UniProt P11836)
T1 sequence (looked up): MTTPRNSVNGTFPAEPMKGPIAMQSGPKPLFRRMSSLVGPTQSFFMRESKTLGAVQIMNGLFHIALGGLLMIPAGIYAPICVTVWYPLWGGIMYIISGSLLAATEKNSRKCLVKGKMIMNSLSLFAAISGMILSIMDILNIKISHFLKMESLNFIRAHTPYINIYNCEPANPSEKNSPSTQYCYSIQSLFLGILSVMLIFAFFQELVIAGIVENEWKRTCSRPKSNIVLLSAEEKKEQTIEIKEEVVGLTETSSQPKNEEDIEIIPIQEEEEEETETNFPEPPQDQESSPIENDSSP
Test: FACS binding assay on CD20+ Daudi cells, serial dilutions of antibody

binding: binds
B1: epitope modified anti-CD20 antibody derived from Leu 16 (antibody, V domains shown)
VH: EVQLQQSGAEVVKPGASVKMSCKASGYTFTSYNMHWVKQTPGQGLEWIGAIYPGNGDTSYNQKFKGRVTLTADKSSSTAYMQLSSLRSEDSAVYYCARSNYYGSSYWFFDVWGAGTTVTVSS
VL: DIVLTQSPATLSASPGEKVTMTCRASSSVNYMAWYQQKPGSSPKPWIYATSNLASGVPARFSGSGSGTSYSLTISRVEAEDAATYYCQQWSFNPPTFGGGTKLEIK
